Reference: PMC12637047
Results are given in words; binding and its absence hold for the method and conditions named. Binding seen in cells or lysates may run through a third protein. These calls come from enrichment with a bait or labelling near it, and not all partners need be listed.

Molecular target: T1, in vivo biotinylated Interferon Regulatory Factor 4 (IRF4) (mouse) (UniProt Q64287)
T1 sequence (chain, biotin on the Avi-tag (in vivo biotinylation by BirA ligase)): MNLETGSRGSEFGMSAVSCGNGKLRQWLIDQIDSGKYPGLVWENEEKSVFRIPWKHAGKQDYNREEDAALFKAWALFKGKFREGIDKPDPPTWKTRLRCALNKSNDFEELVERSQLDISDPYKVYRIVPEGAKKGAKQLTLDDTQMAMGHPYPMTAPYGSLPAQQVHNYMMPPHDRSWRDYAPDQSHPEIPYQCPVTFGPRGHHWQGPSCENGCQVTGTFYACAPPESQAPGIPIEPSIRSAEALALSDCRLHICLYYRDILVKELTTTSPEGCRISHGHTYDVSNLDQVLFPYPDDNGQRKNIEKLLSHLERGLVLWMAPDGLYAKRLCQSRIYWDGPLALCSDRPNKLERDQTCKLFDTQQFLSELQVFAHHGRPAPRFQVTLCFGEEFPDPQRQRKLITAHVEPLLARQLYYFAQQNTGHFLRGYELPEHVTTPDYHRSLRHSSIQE
Assay: affinity purification with mass spectrometry; cells crosslinked in situ with 0.75 mM DSP, nuclei isolated, lysed in RIPA buffer; biotinylated IRF4 captured on streptavidin-coated magnetic beads overnight at 4°C, washes with RIPA 0.35% SDS and 25 mM Tris; label-free DIA LC-MS; Bio versus Ctrl (ROSA26^BirA) by limma

- binding: binds
Substance: GTF2IRD1-isoform2
